Reference: PubChem BioAssay AID256 (DTP/NCI, 2004)
The list is a part of this screen's results and no random one: its compounds were picked by chemical class. Other doses and runs of a compound may be missing. T/C gives the treated animals as a percentage of the vehicle group. Some doses have a count of surviving animals in place of a T/C: the source holds a T/C of zero for them, seemingly a mark for toxic or unscored doses. Some doses without a T/C left all or most animals alive at the check, yet need not have been tolerated: survival well below the control is almost never listed, so the zero probably covers shortened survival too. Counts of survivors are from the toxicity check (mostly the fifth day) where no day follows; animals may have died later. Schedule codes are those of the source, taken here to give the interval after Q, in days (D) or hours (H), and the number of doses after X. Some doses were run more than once; the values are given in rising order. Some complexes appear as separate parts, the way the source draws them; their charges need not add up. For survival time, this PubChem deposit counts one and a half times the control or more as active, and values a quarter to a half above the control carry no call in these data; other NCI protocols may use other cut-offs. Brackets with × give the number of equal values in this list. Some T/C values are marked as having no survivor count here; that says nothing about deaths at the dose. Some T/C values carry the count of animals alive at the toxicity check (mostly the fifth day); where neither a count nor a note follows, no animal had died by that day.

Test system: CD2F1 mice, L1210 leukemia ip, survival T/C
Test: NCI In Vivo Anticancer Drug Screen. Data for tumor model L1210 Leukemia (intraperitoneal) in CD2F1 (CDF1) mice
Settings: T/C endpoint: mean survival time, higher T/C = longer survival
Summary of the method: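 Implant tumor; dose compound or vehicle; measure endpoint in both groups; report treated divided by control.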

[1] = dose: 50.0 mg/kg/injection, schedule: Q01DX001 (ip), vehicle: DMSO
[2] = dose: 62.5 mg/kg/injection, schedule: Q01DX001 (ip), vehicle: DMSO
[3] = dose: 100.0 mg/kg/injection, schedule: Q01DX001 (ip), vehicle: DMSO
[4] = dose: 125.0 mg/kg/injection, schedule: Q01DX001 (ip), vehicle: DMSO
[5] = dose: 200.0 mg/kg/injection, schedule: Q01DX001 (ip), vehicle: DMSO
[6] = dose: 250.0 mg/kg/injection, schedule: Q01DX001 (ip), vehicle: DMSO
[7] = dose: 500.0 mg/kg/injection, schedule: Q01DX001 (ip), vehicle: DMSO
[8] = dose: 100.0 mg/kg/injection, schedule: Q04DX003 (ip), vehicle: saline with Tween-80
[9] = dose: 200.0 mg/kg/injection, schedule: Q04DX003 (ip), vehicle: saline with Tween-80
[10] = dose: 400.0 mg/kg/injection, schedule: Q04DX003 (ip), vehicle: saline with Tween-80
[11] = dose: 31.25 mg/kg/injection, schedule: Q01DX001 (ip), vehicle: DMSO
[12] = dose: 25.0 mg/kg/injection, schedule: Q04DX003 (ip), vehicle: saline
[13] = dose: 50.0 mg/kg/injection, schedule: Q04DX003 (ip), vehicle: saline
[14] = dose: 100.0 mg/kg/injection, schedule: Q04DX003 (ip), vehicle: saline

`O=P1(N(CCCl)CCCl)NC(O)CCO1` (configuration not stated) was tested, and the T/C (dose: 25.0 mg/kg/injection, schedule: Q01DX001 (ip), vehicle: DMSO) was 127 (2×) and 130 % of control, the T/C (dose: 31.3 mg/kg/injection, schedule: Q01DX001 (ip), vehicle: DMSO) was 106 % of control and the T/C [1] was 125, 128, 134 % of control. The T/C [2] was 100 % of control, the T/C [3] was 140 (2×) and 152 % of control and the T/C [4] was 105 % of control. For the same molecule, the T/C [5] was 178, 263, 313 % of control, the T/C [6] was 106 % of control and the T/C (dose: 266.0 mg/kg/injection, schedule: Q01DX001 (ip), vehicle: DMSO) was 96 % of control. The T/C (dose: 400.0 mg/kg/injection, schedule: Q01DX001 (ip), vehicle: DMSO, evaluated on day 25) was 114 % of control, the T/C (dose: 400.0 mg/kg/injection, schedule: Q01DX001 (ip), vehicle: DMSO, evaluated on day 60) was 606, 644, 681 % of control and the T/C [7] was 114 % of control. For the same molecule, the T/C (dose: 600.0 mg/kg/injection, schedule: Q01DX001 (ip), vehicle: DMSO) was 121 % of control and the survivor count (dose: 900.0 mg/kg/injection, schedule: Q01DX001 (ip), vehicle: DMSO) was 3 of 6.

In the case of `CCN(CC)CCOC(=O)C(O)(c1ccccc1)c1c(C)cc(C)cc1C` (configuration not stated), the T/C (dose: 75.0 mg/kg/injection, schedule: Q01DX001 (ip), vehicle: saline) is reported as 108 % of control, the T/C (dose: 150.0 mg/kg/injection, schedule: Q01DX001 (ip), vehicle: saline) is reported as 103 % of control and the T/C (dose: 300.0 mg/kg/injection, schedule: Q01DX001 (ip), vehicle: saline) is reported as 105 % of control.

With `CCC(C)(C)c1c([N+](=O)[O-])c(C)c([N+](=O)[O-])c(C)c1[N+](=O)[O-]` the T/C [8] was 93 % of control, the T/C [9] was 89 % of control and the T/C [10] was 93 % of control.

`CCCCN=C(N)C(N)=NCCCC.O=[N+]([O-])c1cc([N+](=O)[O-])c(O)c([N+](=O)[O-])c1` was tested, and the T/C (dose: 200.0 mg/kg/injection, schedule: Q04DX002 (ip), vehicle: saline with Tween-80) was 93 % of control [survivor count not shown].

For `O=[As](O)(O)c1ccc([As](=O)(O)O)cc1`, the T/C (dose: 50.0 mg/kg/injection, schedule: Q01DX009 (ip), vehicle: Klucel (hydroxypropylcellulose) (HPC)) was 97 % of control, the T/C (dose: 100.0 mg/kg/injection, schedule: Q01DX009 (ip), vehicle: Klucel (hydroxypropylcellulose) (HPC)) was 94 % of control and the survivor count (dose: 200.0 mg/kg/injection, schedule: Q01DX009 (ip), vehicle: Klucel (hydroxypropylcellulose) (HPC)) was 1 of 3.

With `O=CC1COP(=O)(N(CCCl)CCCl)N1` (configuration not stated) the T/C (dose: 15.62 mg/kg/injection, schedule: Q01DX001 (ip), vehicle: DMSO) was 104 % of control, the T/C [11] was 95 % of control and the T/C [2] was 97 % of control. For the same molecule, the T/C [4] was 97 % of control, the T/C [6] was 95 % of control and the T/C [7] was 98 % of control.

`NC1CCCCC1.O=C(O)CCOP(=O)(O)N(CCCl)CCCl` was tested, and the T/C [12] was 107 % of control, the T/C [13] was 101 % of control and the T/C [14] was 103 % of control. The T/C (dose: 200.0 mg/kg/injection, schedule: Q04DX003 (ip), vehicle: saline) was 110 % of control and the T/C (dose: 400.0 mg/kg/injection, schedule: Q04DX003 (ip), vehicle: saline) was 133 % of control.

In the case of `Cc1cc(N(CCCl)CCCl)ccc1N`, the T/C (dose: 0.25 mg/kg/injection, schedule: Q01DX009 (ip), vehicle: Klucel (hydroxypropylcellulose) (HPC)) is reported as 106 % of control, the T/C (dose: 0.5 mg/kg/injection, schedule: Q01DX009 (ip), vehicle: Klucel (hydroxypropylcellulose) (HPC)) is reported as 105 % of control and the T/C (dose: 1.0 mg/kg/injection, schedule: Q01DX009 (ip), vehicle: Klucel (hydroxypropylcellulose) (HPC)) is reported as 111 % of control. For the same molecule, the T/C (dose: 2.0 mg/kg/injection, schedule: Q01DX009 (ip), vehicle: Klucel (hydroxypropylcellulose) (HPC)) was 113 % of control, the survivor count (dose: 4.0 mg/kg/injection, schedule: Q01DX009 (ip), vehicle: Klucel (hydroxypropylcellulose) (HPC)) was 8 of 8 and the survivor count (dose: 8.0 mg/kg/injection, schedule: Q01DX009 (ip), vehicle: Klucel (hydroxypropylcellulose) (HPC)) was 6 of 8.

For `[C-]#N.[C-]#N.[C-]#N.[C-]#N.[C-]#N.[C-]#N.[Co].c1ccc([I+]c2ccccc2)cc1`, the survivor count (dose: 100.0 mg/kg/injection, schedule: Q01DX001 (ip), vehicle: saline) was 1 of 6, the survivor count (dose: 200.0 mg/kg/injection, schedule: Q01DX001 (ip), vehicle: saline) was 0 of 6 and the survivor count (dose: 400.0 mg/kg/injection, schedule: Q01DX001 (ip), vehicle: saline) was 0 of 6.

With `Cc1ccc2c(c1)C[P+](c1ccccc1)(c1ccccc1)CC2C.F[P-](F)(F)(F)(F)F` (configuration not stated) the T/C [8] was 95 % of control [2 of 3 alive], the survivor count [9] was 2 of 3 and the survivor count [10] was 0 of 3.

With `Cc1n/c(=N\[N+](=O)[O-])[nH][nH]1` the T/C (dose: 100.0 mg/kg/injection, schedule: Q01DX001 (ip), vehicle: saline with Tween-80) was 94 % of control [survivor count not shown], the T/C (dose: 200.0 mg/kg/injection, schedule: Q01DX001 (ip), vehicle: saline with Tween-80) was 90 % of control [survivor count not shown] and the T/C (dose: 400.0 mg/kg/injection, schedule: Q01DX001 (ip), vehicle: saline with Tween-80) was 90 % of control [survivor count not shown].

For `O=C(CCCN1CCC(n2c(=O)n(CO)c3ccccc32)CC1)c1ccc(F)cc1`, the T/C (dose: 58.0 mg/kg/injection, schedule: Q04DX003 (ip), vehicle: Klucel (hydroxypropylcellulose) (HPC)) was 96 % of control, the T/C (dose: 88.0 mg/kg/injection, schedule: Q04DX003 (ip), vehicle: Klucel (hydroxypropylcellulose) (HPC)) was 91 % of control and the T/C (dose: 133.0 mg/kg/injection, schedule: Q04DX003 (ip), vehicle: Klucel (hydroxypropylcellulose) (HPC)) was 102 % of control.

For `NNc1nc(NN)nc(NN)n1`, the T/C (dose: 100.0 mg/kg/injection, schedule: Q04DX003 (ip), vehicle: Klucel (hydroxypropylcellulose) (HPC)) was 92 % of control, the survivor count (dose: 200.0 mg/kg/injection, schedule: Q04DX003 (ip), vehicle: Klucel (hydroxypropylcellulose) (HPC)) was 3 of 3 and the survivor count (dose: 400.0 mg/kg/injection, schedule: Q04DX003 (ip), vehicle: Klucel (hydroxypropylcellulose) (HPC)) was 3 of 3.

For `O=C1CCNP(=O)(N(CCCl)CCCl)O1` (configuration not stated), the T/C (dose: 15.63 mg/kg/injection, schedule: Q01DX001 (ip), vehicle: DMSO) was 102 % of control, the T/C [11] was 108 % of control and the T/C [2] was 111 % of control. For the same molecule, the T/C [4] was 111 % of control, the T/C [6] was 133 % of control and the survivor count [7] was 0 of 6. For the same molecule, the survivor count (dose: 1000.0 mg/kg/injection, schedule: Q01DX001 (ip), vehicle: DMSO) was 0 of 6.

In the case of `CC(O)CCOP(=O)(N(CCCl)CCCl)N1CC1` (configuration not stated), the T/C (dose: 12.5 mg/kg/injection, schedule: Q01DX001 (ip), vehicle: DMSO) is reported as 140 % of control, the T/C (dose: 25.0 mg/kg/injection, schedule: Q01DX001 (ip), vehicle: DMSO, evaluated on day 35) is reported as 164 % of control and the T/C (dose: 25.0 mg/kg/injection, schedule: Q01DX001 (ip), vehicle: DMSO, evaluated on day 45) is reported as 125 % of control. For the same molecule, the T/C [1] was 180 % of control, the survivor count [1] was 2 of 6 and the survivor count [3] was 0 of 6 and 2 of 6. For the same molecule, the survivor count [5] was 0 of 6 and 2 of 6 and the survivor count (dose: 400.0 mg/kg/injection, schedule: Q01DX001 (ip), vehicle: DMSO) was 0 of 6.

`CC[C@H](C)[C@@H]1NC(=O)/C(=C(\C)O)C1=O` was tested, and the T/C (dose: 12.5 mg/kg/injection, schedule: Q01DX009 (ip), vehicle: saline with Tween-80) was 96 % of control, the T/C (dose: 25.0 mg/kg/injection, schedule: Q01DX009 (ip), vehicle: saline with Tween-80) was 101 % of control and the T/C [12] was 97 % of control. The T/C (dose: 50.0 mg/kg/injection, schedule: Q01DX009 (ip), vehicle: saline with Tween-80) was 96 % of control, the T/C [13] was 101 % of control and the survivor count [14] was 3 of 6.
